These results are taken from the supplement of paper PMC12889115.

Some of the results follow. Values are raw readings; no control value is given beside them.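 In the initial screen, polymyxin B was used at a concentration that permeabilizes Salmonella's outer membrane but not its inner membrane. Maximum growth was set by DMSO wells with or without polymyxin B. Since plates varied, data were ranked per plate, and compounds giving the lowest OD600 advanced as hits.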

This test has as its system Salmonella enterica serovar Typhimurium SL1344. The test is described as follows: bacterial growth OD600 after 18 h with compound and polymyxin B; higher = more bacterial growth (less inhibition). As to conditions: 50 µM, Mueller-Hinton broth.

Turning to `Cc1cc(C)nc(NCc2cccnc2N2CCN(C)CC2)n1`, under “polymyxin B 0.75 µg/mL”, the “bacterial growth OD600” value is 0.775.
Still for that read-out and setting: to `CC(C)c1noc(-c2ccc(NCc3cc(-c4cccnc4)no3)nc2)n1` belongs 0.008.
Turning to `Cc1ncc(CNC(C)c2cnc(N(C)C3CCCCC3)nc2C)cn1` (stereo not given), the “bacterial growth OD600” value (polymyxin B 0.75 µg/mL) was 0.551.
`CCn1ccnc1CNC(=O)c1ccc(OC2CCN(S(=O)(=O)N(C)C)CC2)cc1`: the “bacterial growth OD600” value (polymyxin B 1 µg/mL) amounted to 0.974.
In the case of `COCC(O)CNC(=O)c1cc(Cl)ccc1OC1CCN(C2CCCC2)CC1` (stereo not given), the “bacterial growth OD600” value (polymyxin B 1 µg/mL) was 0.918.
As for `C/C=C(\C)CN1CCOc2ccc(C(C)(O)COc3ccccc3)cc2C1` (stereo not given), under “polymyxin B 0.75 µg/mL”, the “bacterial growth OD600” value came out at 0.878.
Regarding `CC(=O)N[C@@H]1c2ccccc2C2(CCN(C(=O)c3nc4ncccn4n3)CC2)[C@H]1OCc1ccccc1`, the “bacterial growth OD600” value (polymyxin B 0.75 µg/mL) amounted to 0.94.
In the case of `COc1cccc(CN2CCN(Cc3ccccc3F)C(CCO)C2)c1` (stereo not given), the “bacterial growth OD600” value (polymyxin B 1 µg/mL) was 0.915.
Regarding `COCC1CCCN(Cc2ccc3c(c2)CN(C(=O)COc2ccccc2Cl)CCO3)C1` (stereo not given), the “bacterial growth OD600” value (polymyxin B 0.75 µg/mL) was 0.966.
Take `Cc1ccc2oc(C(=O)NCC3COc4ccccc4O3)c(C)c2c1` (stereo not given): the “bacterial growth OD600” value (polymyxin B 1 µg/mL) was 0.409.
On the same count and under the same terms, to `O=C(NC1CC(=O)N(Cc2cccc3ccccc23)C1)c1ccco1` (stereo not given) belongs 0.91.
As for `COCCCN1C(=O)CC(CC(=O)N2CCC(Oc3ccccc3OC)CC2)(c2ccccc2)C1=O` (stereo not given), the “bacterial growth OD600” value (polymyxin B 0.75 µg/mL) worked out at 0.825.
With `CC#CCN1C(=O)NC(CCc2ccccc2)(C2CCN(Cc3ccc(OCC)cc3)CC2)C1=O` (stereo not given), the “bacterial growth OD600” value (polymyxin B 0.75 µg/mL) amounted to 0.809.
On the same count and under the same terms, in the case of `CN(C(=O)c1cccs1)C(Cc1ccccc1)C1CCN(C(=O)CSc2ncccn2)CC1` (stereo not given) it was 0.946.
With `Cc1ccc(CN2CCN(Cc3cc4ccccc4o3)CC2CCO)cc1` (stereo not given), the “bacterial growth OD600” value (polymyxin B 1 µg/mL) was found to be 0.809.
Regarding `COc1ccc(CN2CCCC(CNC(=O)c3ccc(F)cc3)C2)cc1OC` (stereo not given), the “bacterial growth OD600” value (polymyxin B 1 µg/mL) turned out to be 0.885.
Consider `CS(=O)(=O)NCc1cccnc1Oc1cccc(C(F)(F)F)c1`, for which, where the note is “polymyxin B 1 µg/mL”, the “bacterial growth OD600” value was 0.823.
For the compound `Cc1ccccc1SC1CCN(C(=O)c2cn(CCN3CCOCC3)nn2)CC1`, the “bacterial growth OD600” value (polymyxin B 1 µg/mL) came to 1.08.
On to `CC(C)(O)C#Cc1ccc(C(=O)N2CCC3(CC2)c2ccccc2[C@@H](NC(=O)c2ccccc2)[C@@H]3O)o1`, for which the “bacterial growth OD600” value (polymyxin B 0.75 µg/mL) is 0.883.
For the compound `COc1cc(C(=O)N2CCCC(C(=O)c3cccc4ccccc34)C2)cc(OC)c1OC` (stereo not given), the “bacterial growth OD600” value (polymyxin B 1 µg/mL) was 0.85.
